Patent US20140005119A1, “COMPOSITIONS AND METHODS FOR INHIBITING THE ACTIVITY OF P110a MUTANT PROTEINS” (Case Western Reserve University, priority 2012, published 2014)
Results are given in words; binding and its absence hold for the method and conditions named. Binding seen in cells or lysates may run through a third protein. Some entries that bind do so weakly or less than the wild type.

By UniProt entry, the sequences of proteins in these tests, tags left out. Where a name states a change or a piece, a line headed by the entry shows the natural chain unless it says otherwise. Chains listed by the source or under a name are the forms on record and can include a tag or linker.
IRS1D (MYC-tagged IRS1 devoid of both AA 607-623 and AA 936-962) (P35568, form named): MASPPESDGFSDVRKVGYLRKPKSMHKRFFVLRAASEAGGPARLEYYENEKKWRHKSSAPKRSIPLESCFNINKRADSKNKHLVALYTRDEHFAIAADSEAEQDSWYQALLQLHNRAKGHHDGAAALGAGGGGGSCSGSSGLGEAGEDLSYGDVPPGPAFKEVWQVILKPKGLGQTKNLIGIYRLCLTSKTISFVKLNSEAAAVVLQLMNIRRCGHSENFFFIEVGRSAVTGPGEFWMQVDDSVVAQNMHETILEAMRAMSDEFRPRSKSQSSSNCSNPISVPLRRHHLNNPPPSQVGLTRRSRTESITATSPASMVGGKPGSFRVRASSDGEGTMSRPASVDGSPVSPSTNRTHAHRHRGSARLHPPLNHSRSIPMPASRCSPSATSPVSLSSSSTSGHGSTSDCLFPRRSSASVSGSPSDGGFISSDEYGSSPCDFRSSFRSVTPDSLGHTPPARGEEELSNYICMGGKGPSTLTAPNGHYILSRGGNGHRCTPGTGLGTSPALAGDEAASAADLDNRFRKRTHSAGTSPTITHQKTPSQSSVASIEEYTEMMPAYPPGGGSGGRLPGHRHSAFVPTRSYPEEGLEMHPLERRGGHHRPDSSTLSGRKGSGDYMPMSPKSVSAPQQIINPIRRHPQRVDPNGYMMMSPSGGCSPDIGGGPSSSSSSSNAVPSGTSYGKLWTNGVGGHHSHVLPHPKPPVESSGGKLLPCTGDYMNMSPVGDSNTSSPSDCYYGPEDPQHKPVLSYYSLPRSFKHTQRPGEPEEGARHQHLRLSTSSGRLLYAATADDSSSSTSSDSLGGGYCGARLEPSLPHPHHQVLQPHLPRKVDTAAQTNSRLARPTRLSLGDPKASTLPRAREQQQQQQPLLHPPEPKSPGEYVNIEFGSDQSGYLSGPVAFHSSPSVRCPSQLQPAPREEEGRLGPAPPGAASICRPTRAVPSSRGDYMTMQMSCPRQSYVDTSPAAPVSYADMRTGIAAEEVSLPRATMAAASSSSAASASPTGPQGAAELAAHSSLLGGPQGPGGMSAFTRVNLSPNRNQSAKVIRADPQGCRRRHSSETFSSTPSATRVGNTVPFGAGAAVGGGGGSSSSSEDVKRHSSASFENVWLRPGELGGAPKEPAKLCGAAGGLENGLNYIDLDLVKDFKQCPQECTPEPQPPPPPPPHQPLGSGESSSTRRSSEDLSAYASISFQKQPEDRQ
UniProt P27986: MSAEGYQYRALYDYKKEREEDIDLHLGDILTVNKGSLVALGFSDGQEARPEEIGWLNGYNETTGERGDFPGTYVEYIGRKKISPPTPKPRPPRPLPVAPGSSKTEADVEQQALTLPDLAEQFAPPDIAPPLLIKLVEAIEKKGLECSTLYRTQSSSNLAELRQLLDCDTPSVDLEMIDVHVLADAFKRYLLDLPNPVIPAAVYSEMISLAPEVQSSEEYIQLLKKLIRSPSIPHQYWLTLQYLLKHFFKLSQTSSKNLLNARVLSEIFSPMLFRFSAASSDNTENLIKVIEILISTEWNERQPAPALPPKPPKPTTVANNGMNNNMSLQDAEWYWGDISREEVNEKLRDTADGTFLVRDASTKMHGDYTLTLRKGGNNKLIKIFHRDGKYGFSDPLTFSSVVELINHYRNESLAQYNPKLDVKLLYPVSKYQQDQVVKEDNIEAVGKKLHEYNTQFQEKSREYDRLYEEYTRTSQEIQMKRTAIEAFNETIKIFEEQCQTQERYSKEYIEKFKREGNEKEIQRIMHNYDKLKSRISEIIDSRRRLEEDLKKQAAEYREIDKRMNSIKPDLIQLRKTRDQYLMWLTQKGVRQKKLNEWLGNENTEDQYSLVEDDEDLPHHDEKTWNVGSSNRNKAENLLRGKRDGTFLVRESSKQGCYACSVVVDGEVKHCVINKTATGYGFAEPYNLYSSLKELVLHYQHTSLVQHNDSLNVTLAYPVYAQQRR

Biological target: IRS1D (MYC-tagged IRS1 devoid of both AA 607-623 and AA 936-962) (UniProt P35568)
Assay: co-transfection in HEK293 cells with HA-tagged p85, co-IP

## HA-tagged p85 (from UniProt P27986 1-724)
  binding: binds
